Source: patent publication US20140194320, “METHOD FOR PREPARING NUCLEIC ACID APTAMER” (TAGCYX BITOECNOLOGIES, published 2014)
Tags and fusion partners may be left off the protein sequences shown.

Molecular target: T1, NF-κB p50 (rhNF-κB) (Homo sapiens) (UniProt P19838)
T1 sequence (looked up, limits assumed): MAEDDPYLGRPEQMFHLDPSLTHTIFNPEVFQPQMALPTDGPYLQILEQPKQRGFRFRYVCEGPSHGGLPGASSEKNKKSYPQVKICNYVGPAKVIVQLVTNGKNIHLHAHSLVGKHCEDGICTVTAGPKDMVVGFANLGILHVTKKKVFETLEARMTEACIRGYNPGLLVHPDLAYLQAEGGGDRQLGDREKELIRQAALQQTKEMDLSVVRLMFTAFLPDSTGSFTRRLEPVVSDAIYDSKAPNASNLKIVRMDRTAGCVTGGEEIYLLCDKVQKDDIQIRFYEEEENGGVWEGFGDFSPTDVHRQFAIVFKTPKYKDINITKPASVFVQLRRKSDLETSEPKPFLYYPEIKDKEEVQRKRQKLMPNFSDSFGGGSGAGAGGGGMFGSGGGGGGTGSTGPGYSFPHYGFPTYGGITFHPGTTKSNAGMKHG
Experiment: SPR
Details: printed as >>10-9; control aptamer; purified recombinant protein; protein details: Promega; single-stranded DNA

Sequence: AAGACCAGACAATGTACAGTATTGGCCTGAAGGAGTGGACTGATACGATCGATTGACAG [Taq-59]
- Kd: > 1 nM
